# Assay results as given in patent publication US20200399329A1, “ANTIMICROBIAL PEPTIDES” (priority 2015, published 2020).
# Where two headings read alike, the source gives them in different places. For at least one compound, name, drawing or mass did not settle the structure.
# What was measured:
# [1] = tested on: E. coli CR BAA-2452; type: cell-based, Escherichia coli
# Description: In order to determine the MIC values of the peptides, growth and inhibition of various bacteria were monitored after treatment with the peptides of the invention (Table 6).
# E. coli bacteria were cultured with or without OMN6 in increasing concentrations of 0.8-200 μM and with or without Fetal Bovine Serum 10% for 17-20 hours. The growth of the bacteria was continuously monitored via spectrophotometry at 600 nm. As bacterial growth progresses, OD600 nm values rise, and where the growth is inhibited OD600 nm values remain constant.
# E. coli NDM1 is a Carbapenem resistant strain of bacteria. The experimental system described above was used to determine the antimicrobial effect of OMN6 on this bacteria compared to the antibiotic drug Imipenem (IPM), a member of the Carbapenem family of antibiotics. The MIC value for IPM on sensitive E. coli is 4 μg/ml, in a MIC above 8 μg/ml the bacteria is considered resistant.
# The experimental system and parameters described here were used to determine the MIC values of OMN2, OMN6, OMN7 and OMN11 on various bacteria strains (Table 7 and Table 8).
# [2] = tested on: E. coli Sens. 25922; settings: above 8 μg/ml considered resistant; cited from earlier work
smiles,measurement,setting,value
"C[C@@H](O)[C@H]1C(=O)N2C(C(=O)O)=C(SCCN=CN)C[C@H]12 [IPM, Imipenem, reference compound]",Inhibition of growth of E. coli NDM1,"[1]; IPM 64 μg/ml, FIG. 6C",not inhibited at all
same,Inhibition of growth of E. coli NDM1,[1]; IPM 128 μg/ml (data not shown),not inhibited at all
same,MIC value on sensitive E. coli,[2],4 µg/mL
